Data as given in PubChem BioAssay AID1259331 (Drosophila RNAi Screening Center, 2017).
Screen: 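Fly transmembrane-protein genes that affect zinc toxicity in cultured cells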 (primary screen). Cells: Drosophila S2R+ cells. Knock-down reagent: long dsRNA against Drosophila genes. Timing: 5 days (4 days knock-down, then 1 day zinc). Conditions: zinc chloride at 15 mM final level for 1 day. Measurement: 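Total cellular ATP measured by luciferase luminescence as a viability proxy, turned into Z scores from three plate copies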. Scale: mean Z score: higher = more ATP than other wells, better survival under zinc; ATP luminescence: higher = more ATP, more viable cells. Hit rule: 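Hit when the absolute Z score is greater than 1.5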. Meaning of the calls: active = hit, ATP up or down; inactive = not a hit.
The whole screen tested about 3,100 reagents; this is a random part of them. 126 of them (4.1%) were called active. 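Calls are per reagent; zinc was so toxic that few knock-downs lowered ATP further, so most hits raise ATP.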 Raw values are not corrected between plates. A number with no mark means an inactive call. Reagents against one gene are numbered here. Names joined by + are all predicted targets of the reagent. The record does not give: the amount of reagent.

| gene knocked down | reagent no. | mean Z score | ATP luminescence, replicate 1 | ATP luminescence, replicate 2 |
| --- | --- | --- | --- | --- |
| Itgbn | 1 | 0.155 | 54368 | 35050 |
| Itgbn | 2 | -0.451 | 49315 | 50429 |
| Ir60a | 1 | 0.157 | 52178 | 42782 |
| Ir60a | 2 | 0.935 | 63907 | 64919 |
| nrv2 | 1 | -0.191 | 40913 | 40913 |
| nrv2 | 2 | 0.252 | 52144 | 67903 |
| COX4L | 1 | 0.0466 | 52418 | 41656 |
| COX4L | 2 | 0.0168 | 62690 | 58197 |
| CG9555 | 1 | -0.835 | 28947 | 36027 |
| CG9555 | 2 | -0.372 | 45085 | 56911 |
| CG11426 | 1 | -0.231 | 69704 | 56293 |
| CG11426 | 2 | -0.47 | 58849 | 56117 |
| CG11426 | 3 | -0.316 | 47651 | 40879 |
| Alg12 | 1 | -0.217 | 34489 | 56756 |
| Alg12 | 2 | -0.473 | 44548 | 54853 |
| CG12209 | 1 | 0.218 | 88418 | 76871 |
| PIG-O | 1 | -0.599 | 24790 | 26719 |
| PIG-O | 2 | -0.787 | 39679 | 42645 |
| drl | 1 | 0.0608 | 51252 | 63271 |
| drl | 2 | -0.256 | 57919 | 56962 |
| drl | 3 | 0.584 | 53312 | 57442 |
| ppk23 | 1 | 0.268 | 50086 | 45491 |
| ppk23 | 2 | 0.0389 | 58437 | 59287 |
| Vmat | 1 | 0.269 | 54613 | 62353 |
| Abcd1 | 1 | 0.0685 | 44274 | 49520 |
| Abcd1 | 2 | 0.0265 | 59843 | 60119 |
| mge | 1 | 1.6 (active) | 1.06e5 | 82588 |
| Sras | 1 | 0.0327 | 78469 | 58660 |
| Indy-2 + CG33934 | 1 | -0.489 | 39096 | 36308 |
| Indy-2 + CG33934 | 2 | -0.29 | 35479 | 42071 |
| Ent3 | 1 | -0.321 | 26256 | 32427 |
| Ent3 | 2 | -0.0436 | 42559 | 51580 |
| Or30a | 1 | -0.177 | 51008 | 40845 |
| Or30a | 2 | -0.612 | 55199 | 53346 |
| CG1806 | 1 | -0.189 | 43297 | 44514 |

Entries listed above marked active, once more:
| gene knocked down | reagent no. | mean Z score | ATP luminescence, replicate 1 | ATP luminescence, replicate 2 |
| --- | --- | --- | --- | --- |
| mge | 1 | 1.6 (active) | 1.06e5 | 82588 |

The listing continues:
| gene knocked down | reagent no. | mean Z score | ATP luminescence, replicate 1 | ATP luminescence, replicate 2 |
| --- | --- | --- | --- | --- |
| CG15211 | 1 | -0.951 | 49332 | 51250 |
| CG15211 | 2 | -0.783 | 45182 | 45165 |
| Vha100-3 | 1 | 0.039 | 40451 | 44822 |
| Vha100-3 | 2 | -0.433 | 57768 | 50961 |
| Arts + Apl | 1 | -0.0454 | 79343 | 53346 |
| CG31904 + CG13796 | 1 | -0.133 | 45371 | 45656 |
| Ir94b | 1 | 0.00714 | 46678 | 46955 |
| CG4332 | 1 | -0.591 | 38119 | 39751 |
| CG4332 | 2 | 0.0541 | 61249 | 59174 |
| Tsp29Fa | 1 | 0.69 | 55093 | 45114 |
| Tsp29Fa | 2 | 0.408 | 68109 | 67238 |
| CG14511 | 1 | 0.172 | 77285 | 60323 |
| CG14511 | 2 | 0.115 | 59686 | 56225 |
| CG13887 | 1 | -0.296 | 31485 | 28742 |
| Rift | 1 | 0.582 | 70842 | 80664 |
| Sfxn2 | 1 | -0.387 | 71067 | 55162 |
| Sfxn2 | 2 | 0.045 | 60392 | 56791 |
| Tmx3 | 1 | 0.0284 | 40159 | 27734 |
| Tmx3 | 2 | -0.188 | 63204 | 52572 |
| Ddr | 1 | -0.279 | 78057 | 68278 |
| Ddr | 2 | -0.362 | 42405 | 42439 |
| Ddr | 3 | -0.0103 | 48509 | 46674 |
| ACXC | 1 | 0.468 | 61198 | 38764 |
| CG6790 | 1 | -0.0566 | 43422 | 45645 |
| M6 | 1 | -0.393 | 70459 | 53053 |
| M6 | 2 | 0.197 | 55762 | 62450 |
| clumsy | 1 | -0.128 | 48046 | 44411 |
| CG5810 | 1 | 0.655 | 54143 | 56208 |
| CG5810 | 2 | -0.137 | 57399 | 54957 |
| Cftr | 1 | -1.04 | 32239 | 33638 |
| Cftr | 2 | -0.122 | 56448 | 52658 |
| otk2 | 1 | -0.0569 | 74283 | 74078 |
| Gr58b | 1 | 0.114 | 56722 | 44028 |
| Gr58b | 2 | -0.213 | 54699 | 60292 |
